Experimental data: patent US8163766B2, “Beta-secretase modulators and methods of use” (Amgen Inc., priority 2005, dated 2012)
Some entries share one result that the patent states for a list of compounds.

Amino acid sequences for entries named in this document (tags omitted). Residues count along the entry.
UniProt P56817, 46-501, species assumed: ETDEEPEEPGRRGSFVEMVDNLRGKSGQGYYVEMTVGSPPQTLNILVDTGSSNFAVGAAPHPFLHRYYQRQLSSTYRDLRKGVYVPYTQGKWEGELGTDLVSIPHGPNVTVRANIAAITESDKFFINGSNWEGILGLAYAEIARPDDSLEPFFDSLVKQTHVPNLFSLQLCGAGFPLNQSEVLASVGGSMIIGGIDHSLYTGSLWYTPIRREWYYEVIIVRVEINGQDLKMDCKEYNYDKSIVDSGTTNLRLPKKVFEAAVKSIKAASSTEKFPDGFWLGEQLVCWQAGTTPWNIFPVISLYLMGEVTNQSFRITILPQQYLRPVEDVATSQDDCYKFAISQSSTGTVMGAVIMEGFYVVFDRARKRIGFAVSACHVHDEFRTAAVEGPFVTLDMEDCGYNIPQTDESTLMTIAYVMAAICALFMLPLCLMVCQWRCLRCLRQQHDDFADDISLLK

Molecular target: BACE (Homo sapiens, UniProt P56817)
Assay: In Vitro Enzymatic BACE FRET (Fluorescence Resonance Energy Transfer) Assay
Format: biochemical
Conditions: Enzyme 0.2 nM pre-incubated one hour with inhibitor, FRET substrate 50 nM, acetate pH 4.2

IC50, ≤ 5 µM:
CCc1ccc2c(c1)C(NC[C@@H](O)[C@H](Cc1ccccc1)NC(=O)c1cc(C#N)c(=O)n(C3CCCC3)c1)CC1(CCCC1)O2 (stereo partly drawn) [Example 1]
CCc1ccc2c(c1)C(NC[C@@H](O)[C@H](Cc1ccccc1)NC(=O)c1ccc(=O)n(C3CCCC3)c1)CC1(CCCC1)O2 (stereo partly drawn) [Example 2]
CCc1ccc2c(c1)C(NC[C@@H](O)[C@H](Cc1ccccc1)NC(=O)c1cc(-c3ccccc3F)c(=O)n(C3CCCC3)c1)CC1(CCCC1)O2 (stereo partly drawn) [Example 3]
CCc1ccc2c(c1)C(NC[C@@H](O)[C@H](Cc1ccccc1)NC(=O)c1cc(-c3ccccn3)c(=O)n(C3CCCC3)c1)CC1(CCCC1)O2 (stereo partly drawn) [Example 5]
CCc1ccc2c(c1)C(NC[C@@H](O)[C@H](Cc1ccccc1)NC(=O)c1cc(-n3cccn3)c(=O)n(C3CCCC3)c1)CC1(CCCC1)O2 (stereo partly drawn) [Example 6]
CCc1ccc2c(c1)C(NC[C@@H](O)[C@H](Cc1ccccc1)NC(=O)c1cc(-c3ccc(F)cc3)c(=O)n(C3CCCC3)c1)CC1(CCCC1)O2 (stereo partly drawn) [Example 7]
CCc1ccc2c(c1)C(NC[C@@H](O)[C@H](Cc1ccccc1)NC(=O)c1cc(-c3ccccc3)c(=O)n(C3CCCC3)c1)CC1(CCCC1)O2 (stereo partly drawn) [Example 8]
CCc1ccc2c(c1)C(NC[C@@H](O)[C@H](Cc1ccccc1)NC(=O)c1cc(-c3cccc(F)c3)c(=O)n(C3CCCC3)c1)CC1(CCCC1)O2 (stereo partly drawn) [Example 9]
CCc1ccc2c(c1)C(NC[C@@H](O)[C@H](Cc1ccccc1)NC(=O)c1ccc(=O)n(C3CCC(c4ccccc4)C3)c1)CC1(CCCC1)O2 (stereo partly drawn) [Example 10]
CCc1ccc2c(c1)C(NC[C@@H](O)[C@H](Cc1ccccc1)NC(=O)c1ccc(=O)n(C3CCCC(c4ccccc4)C3)c1)CC1(CCCC1)O2 (stereo partly drawn) [Example 12]
CCc1ccc2c(c1)C(NC[C@@H](O)[C@H](Cc1ccccc1)NC(=O)c1cc(-c3cccnc3)c(=O)n(C3CCCC3)c1)CC1(CCCC1)O2 (stereo partly drawn) [Example 14, 1-cyclopentyl-N-((2S,3R)-4-(6-ethyl-2,2-spirocyclopentylchroman-4-ylamino)-3-hydrodroxy-1-phenylbutan-2-yl)-6-OXO-5-(pyridine-3-yl)-1,6-dihydropyridine-3-carboxamide]
CCc1ccc2c(c1)C(NC[C@@H](O)[C@H](Cc1ccccc1)NC(=O)c1cc(-c3ccncc3)c(=O)n(C3CCCC3)c1)CC1(CCCC1)O2 (stereo partly drawn) [Example 15, 1-cyclopentyl-N-((2S,3R)-4-(6-ethyl-2,2-spirocyclopentylchroman-4-ylamino)-3-hydrodroxy-1-phenylbutan-2-yl)-6-OXO-5-(pyridin-4-yl)-1,6-dihydropyridine-3-carboxamide]
CCc1ccc2c(c1)C(NC[C@@H](O)[C@H](Cc1ccccc1)NC(=O)c1cc(-c3cncnc3)c(=O)n(C3CCCC3)c1)CC1(CCCC1)O2 (stereo partly drawn) [Example 16, 1-cyclopentyl-N-((2S,3R)-4-(6-ethyl-2,2-spirocyclopentylchroman-4-ylamino)-3-hydrodroxy-1-phenylbutan-2-yl)-6-OXO-5-(pyrimidin-5-yl)-1,6-dihydropyridine-3-carboxamide]
CCc1ccc2c(c1)C(NC[C@@H](O)[C@H](Cc1ccccc1)NC(=O)c1cc(N3CCCC3)c(=O)n(C3CCCC3)c1)CC1(CCCC1)O2 (stereo partly drawn) [Example 17, 1-cyclopentyl-N-((2S,3R)-4-(6-ethyl-2,2-spirocyclopentylchroman-4-ylamino)-3-hydrodroxy-1-phenylbutan-2-yl)-6-OXO-5-(pyrrolidin-1-yl)-1,6-dihydropyridine-3-carboxamide]
CCc1ccc2c(c1)C(NC[C@@H](O)[C@H](Cc1ccccc1)NC(=O)c1cc(NC(C)C)c(=O)n(C3CCCC3)c1)CC1(CCCC1)O2 (stereo partly drawn) [Example 18, 1-cyclopentyl-N-((2S,3R)-4-(6-ethyl-2,2-spirocyclopentylchroman-4-ylamino)-3-hydrodroxy-1-phenylbutan-2-yl)-5-(isopropylamino)-6-oxo-1,6-dihydropyridine-3-carboxamide]
CCc1ccc2c(c1)C(NC[C@@H](O)[C@H](Cc1ccccc1)NC(=O)c1cc(N(C)C)c(=O)n(C3CCCC3)c1)CC1(CCCC1)O2 (stereo partly drawn) [Example 19, 1-cyclopentyl-5-(dimethylamino)-N-((2S,3R)-4-(6-ethyl-2,2-spirocyclopentylchroman-4-ylamino)-3-hydrodroxy-1-phenylbutan-2-yl)-6-oxo-1,6-dihydropyridine-3-carboxamide]
CCc1ccc2c(c1)C(NC[C@@H](O)[C@H](Cc1ccccc1)NC(=O)c1cc(N(C)C)c(=O)n(C3CCCC3)c1)CC1(CCC1)O2 (stereo partly drawn) [Example 20, 1-cyclopentyl-5-(dimethylamino)-N-((2S,3R)-4-(6-ethyl-2,2-spirocyclobutylchroman-4-ylamino)-3-hydrodroxy-1-phenylbutan-2-yl)-6-oxo-1,6-dihydropyridine-3-carboxamide]
CCc1ccc2c(c1)C(NC[C@@H](O)[C@H](Cc1ccccc1)NC(=O)c1cc(N3CCCC3)c(=O)n(C3CCCC3)c1)CC1(CCC1)O2 (stereo partly drawn) [Example 21, 1-cyclopentyl-N-((2S,3R)-4-(6-ethyl-2,2-spirocyclobutylchroman-4-ylamino)-3-hydrodroxy-1-phenylbutan-2-yl)-6-OXO-5-(pyrrolidin-1-yl)-1,6-dihydropyridine-3-carboxamide]
CCc1ccc2c(c1)C(NC[C@@H](O)[C@H](Cc1ccccc1)NC(=O)c1cc(-c3cnccn3)c(=O)n(C3CCCC3)c1)CC1(CCCC1)O2 (stereo partly drawn) [Example 22, 1-cyclopentyl-N-((2S,3R)-4-(6-ethyl-2,2-spirocyclopentylchroman-4-ylamino)-3-hydrodroxy-1-phenylbutan-2-yl)-6-oxo-5-(pyrazin-2-yl)-1,6-dihydropyridine-3-carboxamide]
CCc1ccc2c(c1)C(NC[C@@H](O)[C@H](Cc1ccccc1)NC(=O)c1cc(C3CCCCO3)c(=O)n(C3CCCC3)c1)CC1(CCCC1)O2 (stereo partly drawn) [Example 23, 1-cyclopentyl-N-((2S,3R)-4-(6-ethyl-2,2-spirocyclopentylchroman-4-ylamino)-3-hydrodroxy-1-phenylbutan-2-yl)-6-OXO-5-(tetrahydro-2H-pyran-2-yl)-1,6-dihydropyridine-3-carboxamide]
CCc1ccc2c(c1)C(NC[C@@H](O)[C@H](Cc1ccccc1)NC(=O)c1cc(C3CCCO3)c(=O)n(C3CCCC3)c1)CC1(CCCC1)O2 (stereo partly drawn) [Example 24, 1-cyclopentyl-N-((2S,3R)-4-(6-ethyl-2,2-spirocyclopentylchroman-4-ylamino)-3-hydrodroxy-1-phenylbutan-2-yl)-6-OXO-5-(tetrahydrofuran-2-yl)-1,6-dihydropyridine-3-carboxamide]
CCc1ccc2c(c1)C(NC[C@@H](O)[C@H](Cc1ccccc1)NC(=O)c1cc(NC(C)C)c(=O)n(C)c1)CC1(CCC1)O2 (stereo partly drawn) [Example 25, N-((2S,3R)-4-(6-ethyl-2,2-spirocyclobutylchroman-4-ylamino)-3-hydrodroxy-1-phenylbutan-2-yl)-5-(isopropylamino)-1-methyl-6-oxo-1,6-dihydropyridine-3-carboxamide]
CCc1ccc2c(c1)C(NC[C@@H](O)[C@H](Cc1ccccc1)NC(=O)c1cc(NC(C)C)c(=O)n(CC)c1)CC1(CCC1)O2 (stereo partly drawn) [Example 26, N-((2S,3R)-4-(6-ethyl-2,2-spirocyclobutylchroman-4-ylamino)-3-hydrodroxy-1-phenylbutan-2-yl)-5-(isopropylamino)-1-ethyl-6-oxo-1,6-dihydropyridine-3-carboxamide]
CCc1ccc2c(c1)C(NC[C@@H](O)[C@H](Cc1ccccc1)NC(=O)c1cc(NC)c(=O)n(C3CCCC3)c1)CC1(CCC1)O2 (stereo partly drawn) [Example 28, 1-cyclopentyl-N-((2S,3R)-4-(6-ethyl-2,2-spirocyclobutylchroman-4-ylamino)-3-hydrodroxy-1-phenylbutan-2-yl)-5-(methylamino)-6-oxo-1,6-dihydropyridine-3-carboxamide]
CCc1ccc2c(c1)[C@@H](NC[C@@H](O)[C@H](Cc1ccccc1)NC(=O)C1CN(Cc3ccccc3)CCO1)CC1(CCCC1)O2 (stereo partly drawn) [Example 29, 4-Benzyl-N-((2S,3R)-4-((S)-6-ethyl-2,2-spirocyclopentylchroman-4-ylamino)-3-hydroxy-1-phenylbutan-2-yl) morpholine-2-carboxamide]
CCc1ccc2c(c1)C(NC[C@@H](O)[C@H](Cc1ccccc1)NC(=O)C1CC(CC3CCCCC3)CN(S(C)(=O)=O)C1)CC1(CCCC1)O2 (stereo partly drawn) [Example 35, 1-methylsulfonyl-5-(cyclohexylmethyl)-N-((2S,3R)-4-(6-ethyl-2,2-spirocyclopentylchroman-4-ylamino)-3-hydroxy-1-phenylbutan-2-yl)piperidine]
CCc1ccc2c(c1)[C@@H](NC[C@@H](O)[C@H](Cc1ccccc1)NC(=O)C1CN(c3ccccc3)c3ccccc3O1)CC1(CCCC1)O2 (stereo partly drawn) [Example 42, N-((2S,3R)-4-((S)-6-ethyl-2,2-spirocyclopentylchroman-4-ylamino)-3-hydroxy-1-phenylbutan-2-yl)-4-phenyl-3,4-dihydro-2H-benzo[b][1,4]oxazine-2-carboxamide]
CCc1ccc2c(c1)[C@@H](NC[C@@H](O)[C@H](Cc1ccccc1)NC(=O)C1CN(C3CCCC3)c3ccccc3O1)CC1(CCCC1)O2 (stereo partly drawn) [Example 43, 4-Cyclopentyl-N-((2S,3R)-4-((S)-6-ethyl-2,2-spirocyclopentylchroman-4-ylamino)-3-hydroxy-1-phenylbutan-2-yl)-3,4-dihydro-2H-benzo[b][1,4]oxazine-2-carboxamide]
CCc1ccc2c(c1)[C@@H](NC[C@@H](O)[C@H](Cc1ccccc1)NC(=O)[C@H]1CNc3ccccc3C1)CC1(CCCC1)O2 [Example 44, (R)—N-((2S,3R)-4-((S)-6-Ethyl-2,2-spirocyclopentylchroman-4-ylamino)-3-hydroxy-1-phenylbutan-2-yl)-1,2,3,4-tetrahydroquinoline-3-carboxamide]
CCc1ccc2c(c1)[C@@H](NC[C@@H](O)[C@H](Cc1ccccc1)NC(=O)C1CN(c3ccccn3)c3ccccc3O1)CC1(CCCC1)O2 (stereo partly drawn) [Example 45, (S)—N-((2S,3R)-4-((S)-6-Ethyl-2,2-spirocyclopentylchroman-4-ylamino)-3-hydroxy-1-phenylbutan-2-yl)-4-(pyridin-2-yl)-3,4-dihydro-2H-benzo[b][1,4]oxazine-2-carboxamide]
